{"source": "PubChem BioAssay AID1259308 – NCATS – 2017", "assay": "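Knock-downs that increase output of a recombinant reporter protein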 (primary screen)", "cells": "human HEK293 embryonic kidney cells stably expressing firefly luciferase (HEK-CMV-Luc2-Hygro)", "reagent": "single siRNA against human genes, 0.8 pmol siRNA per well", "duration": "72 h", "detection": "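Reporter luminescence and viable-cell signal on separate replicate plates, given as percent of non-targeting control and median/MAD z-scores, plus per-cell luciferase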", "direction": "total luciferase, z-score and total luciferase, % of control: higher = more reporter protein produced", "hit rule": "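Active when the median/MAD z-score for overall luciferase is greater than 3; a gene was taken forward for validation with new siRNAs if at least two of its three siRNAs passed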", "meaning of the calls": "active = raised luciferase; inactive = no rise", "note": "Shown is one part, drawn at random, of about 59,000 reagents. About 1,510 of them (2.6%) were called active. 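Calls use total luciferase alone and ignore viability, so some active siRNAs may act by altering cell number.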 Unmarked entries are inactive. The numbers tell different reagents against one gene apart. Not all columns of the deposit are shown."}
{"gene": "SOCS4 (suppressor of cytokine signaling 4)", "reagent": 1, "total luciferase, z-score": -0.895, "total luciferase, % of control": 64.1}
{"gene": "SOCS4 (suppressor of cytokine signaling 4)", "reagent": 2, "total luciferase, z-score": 0.781, "total luciferase, % of control": 97.4}
{"gene": "SOCS4 (suppressor of cytokine signaling 4)", "reagent": 3, "total luciferase, z-score": -0.603, "total luciferase, % of control": 69.9}
{"gene": "TIPE3 (TNF alpha induced protein 8 like 3)", "reagent": 1, "total luciferase, z-score": -1.15, "total luciferase, % of control": 59}
{"gene": "TIPE3 (TNF alpha induced protein 8 like 3)", "reagent": 2, "total luciferase, z-score": -1.08, "total luciferase, % of control": 60.3}
{"gene": "TIPE3 (TNF alpha induced protein 8 like 3)", "reagent": 3, "total luciferase, z-score": 0.017, "total luciferase, % of control": 82.2}
{"gene": "ARR3 (arrestin 3)", "reagent": 1, "total luciferase, z-score": 0.405, "total luciferase, % of control": 89.9}
{"gene": "ARR3 (arrestin 3)", "reagent": 2, "total luciferase, z-score": -0.875, "total luciferase, % of control": 64.5}
{"gene": "ARR3 (arrestin 3)", "reagent": 3, "total luciferase, z-score": -0.843, "total luciferase, % of control": 65.1}
{"gene": "CD93 (CD93 molecule)", "reagent": 1, "total luciferase, z-score": -0.734, "total luciferase, % of control": 67.3}
{"gene": "CD93 (CD93 molecule)", "reagent": 2, "total luciferase, z-score": 0.302, "total luciferase, % of control": 87.9}
{"gene": "CD93 (CD93 molecule)", "reagent": 3, "total luciferase, z-score": 0.0049, "total luciferase, % of control": 82}
